Paper PMC7450122

Chains of the proteins cited; added tags and fusions are not shown.
UniProt Q9UER7: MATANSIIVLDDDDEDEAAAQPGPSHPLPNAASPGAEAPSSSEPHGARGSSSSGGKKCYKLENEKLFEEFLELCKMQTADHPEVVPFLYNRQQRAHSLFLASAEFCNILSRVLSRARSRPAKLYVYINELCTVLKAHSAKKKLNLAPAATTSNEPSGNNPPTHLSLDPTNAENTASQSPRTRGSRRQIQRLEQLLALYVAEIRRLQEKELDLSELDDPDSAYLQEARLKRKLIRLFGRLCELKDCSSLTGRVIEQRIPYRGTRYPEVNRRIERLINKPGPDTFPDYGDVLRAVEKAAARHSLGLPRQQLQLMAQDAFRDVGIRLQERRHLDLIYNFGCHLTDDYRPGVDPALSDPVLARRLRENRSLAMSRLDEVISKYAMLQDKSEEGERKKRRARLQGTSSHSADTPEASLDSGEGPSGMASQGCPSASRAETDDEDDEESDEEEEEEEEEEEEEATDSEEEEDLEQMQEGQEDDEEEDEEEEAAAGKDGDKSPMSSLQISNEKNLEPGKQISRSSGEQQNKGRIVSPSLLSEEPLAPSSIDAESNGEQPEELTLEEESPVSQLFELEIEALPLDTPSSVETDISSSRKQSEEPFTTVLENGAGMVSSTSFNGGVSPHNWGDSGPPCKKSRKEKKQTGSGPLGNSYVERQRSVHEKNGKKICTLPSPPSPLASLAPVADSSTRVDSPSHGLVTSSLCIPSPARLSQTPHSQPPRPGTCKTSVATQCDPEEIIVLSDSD
UniProt Q04206: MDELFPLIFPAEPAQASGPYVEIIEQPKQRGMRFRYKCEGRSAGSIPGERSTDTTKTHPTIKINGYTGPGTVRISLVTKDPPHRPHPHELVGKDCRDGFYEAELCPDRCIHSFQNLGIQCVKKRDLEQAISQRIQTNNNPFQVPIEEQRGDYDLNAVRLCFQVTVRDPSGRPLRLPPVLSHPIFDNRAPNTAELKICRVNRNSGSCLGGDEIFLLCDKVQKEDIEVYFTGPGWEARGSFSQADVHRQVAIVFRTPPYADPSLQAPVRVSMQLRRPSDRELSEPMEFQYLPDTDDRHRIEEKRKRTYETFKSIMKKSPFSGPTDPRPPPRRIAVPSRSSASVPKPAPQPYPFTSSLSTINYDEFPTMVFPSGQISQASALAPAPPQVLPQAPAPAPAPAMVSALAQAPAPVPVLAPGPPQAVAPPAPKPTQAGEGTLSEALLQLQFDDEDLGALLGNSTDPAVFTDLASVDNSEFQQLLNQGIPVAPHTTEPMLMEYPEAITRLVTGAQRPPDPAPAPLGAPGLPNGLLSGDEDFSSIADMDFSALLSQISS

Columns and labels:
[1] = biological target: USP7 lacking the Ubl1 domain, FLAG-tagged (UniProt Q93009); test: co-IP; HEK293T cells co-transfected; whole cell lysates in RIPA buffer; FLAG-tagged USP7 immunoprecipitated with anti-FLAG overnight at 4 °C, partner detected by Western blot (Fig. 2B-F, Fig. 3A)
[2] = biological target: USP7 lacking the Ubl3 domain, FLAG-tagged (UniProt Q93009); test: as above
[3] = biological target: USP7 lacking the Ubl4 domain, FLAG-tagged (UniProt Q93009); test: as above
[4] = biological target: USP7 lacking the Ubl5 domain, FLAG-tagged (UniProt Q93009); test: as above
DAXX-FLAG = DAXX-FLAG (UniProt Q9UER7); test: co-IP; HEK293T cells co-transfected; whole cell lysates in RIPA buffer; the partner of USP7 immunoprecipitated (anti-HA, anti-DAXX, anti-c-Rel, anti-RelB or anti-p65) overnight at 4 °C, USP7 detected by Western blot (Fig. 3B-E, Fig. 6C)
RelB-FLAG = biological target: T1, RelB-FLAG (UniProt Q01201); test: as above
T1 sequence: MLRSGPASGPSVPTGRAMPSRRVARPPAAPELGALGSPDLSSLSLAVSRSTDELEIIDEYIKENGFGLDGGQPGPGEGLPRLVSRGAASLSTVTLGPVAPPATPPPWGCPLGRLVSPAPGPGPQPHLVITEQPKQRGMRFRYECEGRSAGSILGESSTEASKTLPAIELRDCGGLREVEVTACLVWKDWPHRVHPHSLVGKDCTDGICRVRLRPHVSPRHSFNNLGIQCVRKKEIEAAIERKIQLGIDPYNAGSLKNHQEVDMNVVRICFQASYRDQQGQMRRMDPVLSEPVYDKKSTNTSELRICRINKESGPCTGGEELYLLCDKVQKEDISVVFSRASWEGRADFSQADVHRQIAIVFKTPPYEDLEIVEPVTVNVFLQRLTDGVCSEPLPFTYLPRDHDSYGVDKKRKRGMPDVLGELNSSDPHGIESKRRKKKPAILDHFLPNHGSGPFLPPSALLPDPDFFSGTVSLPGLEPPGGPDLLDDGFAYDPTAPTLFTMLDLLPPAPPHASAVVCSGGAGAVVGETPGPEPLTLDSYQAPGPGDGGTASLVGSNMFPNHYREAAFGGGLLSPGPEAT

Measured: binding

NF-kB p65 (RelA), expressed in HEK293T cells (from UniProt Q04206 1-551)
binds: [1] | [2] | [3] | [4]

USP7 lacking the Ubl2 domain (USP7ΔUbl2), FLAG-tagged (from UniProt Q93009) (enzyme)
binds: DAXX-FLAG | RelB-FLAG

Results are given in words; binding and its absence hold for the method and conditions named. In cells and extracts the contact can be indirect. A result given as binding can be weak or reduced; the word gives no strength. For part of these data: Where a sequence is shown, tags or fusion partners need not be part of it.
